This assay addresses Yes-associated protein (YAP) (human (endogenous in Caco-2)) (UniProt P46937). As to the kind of experiment: co-IP; endogenous proteins, untreated Caco-2 lysate (0.5% Triton X100 in PBS), 5 ug antibody on protein A/G magnetic beads, 2 h, three washes, Western blot.

Chains of the proteins cited; added tags and fusions are not shown.
UniProt P46937: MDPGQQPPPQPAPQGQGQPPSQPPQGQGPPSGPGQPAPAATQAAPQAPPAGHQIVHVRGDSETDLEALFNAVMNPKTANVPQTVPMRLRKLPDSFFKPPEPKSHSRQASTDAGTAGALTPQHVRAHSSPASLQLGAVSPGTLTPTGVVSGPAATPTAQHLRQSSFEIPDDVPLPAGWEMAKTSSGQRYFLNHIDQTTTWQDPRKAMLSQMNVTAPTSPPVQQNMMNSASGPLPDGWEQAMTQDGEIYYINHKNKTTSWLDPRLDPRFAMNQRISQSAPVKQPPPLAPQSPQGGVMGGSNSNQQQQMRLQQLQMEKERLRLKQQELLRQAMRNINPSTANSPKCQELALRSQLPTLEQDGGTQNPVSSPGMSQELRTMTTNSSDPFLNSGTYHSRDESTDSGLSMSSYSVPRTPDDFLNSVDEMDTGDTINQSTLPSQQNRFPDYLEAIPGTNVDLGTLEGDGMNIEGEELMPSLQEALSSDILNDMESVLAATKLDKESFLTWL
UniProt Q9NR12: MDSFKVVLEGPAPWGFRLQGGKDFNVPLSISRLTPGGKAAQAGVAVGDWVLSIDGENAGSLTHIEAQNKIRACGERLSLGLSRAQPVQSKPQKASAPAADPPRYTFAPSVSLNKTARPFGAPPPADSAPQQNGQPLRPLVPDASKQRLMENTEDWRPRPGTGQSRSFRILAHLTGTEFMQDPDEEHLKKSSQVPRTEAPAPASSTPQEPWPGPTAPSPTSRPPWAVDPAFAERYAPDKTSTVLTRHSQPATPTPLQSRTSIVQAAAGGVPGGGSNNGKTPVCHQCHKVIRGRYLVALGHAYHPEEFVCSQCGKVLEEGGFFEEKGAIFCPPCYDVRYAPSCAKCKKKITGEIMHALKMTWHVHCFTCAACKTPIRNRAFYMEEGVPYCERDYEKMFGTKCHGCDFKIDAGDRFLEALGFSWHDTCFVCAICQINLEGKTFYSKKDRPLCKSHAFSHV
UniProt P15311: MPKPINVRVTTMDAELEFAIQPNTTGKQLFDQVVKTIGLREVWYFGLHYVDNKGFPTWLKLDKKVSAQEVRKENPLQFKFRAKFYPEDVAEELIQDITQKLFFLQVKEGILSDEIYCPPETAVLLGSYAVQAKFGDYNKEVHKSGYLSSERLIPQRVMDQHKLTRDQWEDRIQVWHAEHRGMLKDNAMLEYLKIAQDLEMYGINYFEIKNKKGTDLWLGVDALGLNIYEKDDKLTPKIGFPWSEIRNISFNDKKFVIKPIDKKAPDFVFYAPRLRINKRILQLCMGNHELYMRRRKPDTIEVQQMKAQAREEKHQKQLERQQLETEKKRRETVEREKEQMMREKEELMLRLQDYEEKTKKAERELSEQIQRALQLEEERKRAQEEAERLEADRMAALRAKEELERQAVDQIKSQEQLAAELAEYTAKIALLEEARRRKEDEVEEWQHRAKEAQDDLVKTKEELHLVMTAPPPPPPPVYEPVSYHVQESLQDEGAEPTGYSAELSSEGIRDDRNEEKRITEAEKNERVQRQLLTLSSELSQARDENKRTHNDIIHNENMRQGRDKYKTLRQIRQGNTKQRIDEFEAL

These are yes or no findings as the source states them, for the method shown. In cells and extracts the contact can be indirect. Some binding calls cover weakened binding; strength is not graded here.

In the case of PDLIM7 (from UniProt Q9NR12 1-457), the binding entry was “binds”.
In the case of ezrin (from UniProt P15311 1-586), the binding result was “binds”.

Values taken from PMC12607357.
